# Laboratory results as given in the supplement of paper PMC6411743.
# Amino acid sequences for entries named in this document (tags omitted). A change or cut given only in a name is not applied to a line headed by its entry.
# UniProt O95402: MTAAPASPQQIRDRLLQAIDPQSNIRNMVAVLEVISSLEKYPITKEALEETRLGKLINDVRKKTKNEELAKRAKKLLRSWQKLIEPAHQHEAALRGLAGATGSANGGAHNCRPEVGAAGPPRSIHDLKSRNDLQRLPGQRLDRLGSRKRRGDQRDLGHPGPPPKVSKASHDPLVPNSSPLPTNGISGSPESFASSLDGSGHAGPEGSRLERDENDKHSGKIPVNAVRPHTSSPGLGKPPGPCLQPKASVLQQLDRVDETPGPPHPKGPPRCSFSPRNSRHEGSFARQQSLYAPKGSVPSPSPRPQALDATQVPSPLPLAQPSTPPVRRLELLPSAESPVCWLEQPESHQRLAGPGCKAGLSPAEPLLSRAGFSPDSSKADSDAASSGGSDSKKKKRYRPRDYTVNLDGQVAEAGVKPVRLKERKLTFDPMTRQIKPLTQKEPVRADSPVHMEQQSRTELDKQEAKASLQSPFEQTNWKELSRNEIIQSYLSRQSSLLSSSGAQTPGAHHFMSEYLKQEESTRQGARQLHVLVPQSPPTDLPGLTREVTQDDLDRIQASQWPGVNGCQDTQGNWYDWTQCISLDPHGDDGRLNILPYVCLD
# UniProt O95363: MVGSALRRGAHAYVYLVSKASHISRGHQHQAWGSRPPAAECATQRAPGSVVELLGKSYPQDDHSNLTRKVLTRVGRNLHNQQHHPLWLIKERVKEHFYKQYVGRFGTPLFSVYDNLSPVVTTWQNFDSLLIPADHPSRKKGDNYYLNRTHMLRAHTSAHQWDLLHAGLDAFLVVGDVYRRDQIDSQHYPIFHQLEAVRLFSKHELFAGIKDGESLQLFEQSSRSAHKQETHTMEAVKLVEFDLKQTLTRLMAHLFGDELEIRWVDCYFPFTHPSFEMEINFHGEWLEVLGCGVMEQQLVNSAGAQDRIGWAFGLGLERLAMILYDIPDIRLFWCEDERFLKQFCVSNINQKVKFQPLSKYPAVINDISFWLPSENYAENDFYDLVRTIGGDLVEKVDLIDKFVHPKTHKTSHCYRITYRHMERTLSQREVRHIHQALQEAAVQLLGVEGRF
# UniProt O75533, whole entry: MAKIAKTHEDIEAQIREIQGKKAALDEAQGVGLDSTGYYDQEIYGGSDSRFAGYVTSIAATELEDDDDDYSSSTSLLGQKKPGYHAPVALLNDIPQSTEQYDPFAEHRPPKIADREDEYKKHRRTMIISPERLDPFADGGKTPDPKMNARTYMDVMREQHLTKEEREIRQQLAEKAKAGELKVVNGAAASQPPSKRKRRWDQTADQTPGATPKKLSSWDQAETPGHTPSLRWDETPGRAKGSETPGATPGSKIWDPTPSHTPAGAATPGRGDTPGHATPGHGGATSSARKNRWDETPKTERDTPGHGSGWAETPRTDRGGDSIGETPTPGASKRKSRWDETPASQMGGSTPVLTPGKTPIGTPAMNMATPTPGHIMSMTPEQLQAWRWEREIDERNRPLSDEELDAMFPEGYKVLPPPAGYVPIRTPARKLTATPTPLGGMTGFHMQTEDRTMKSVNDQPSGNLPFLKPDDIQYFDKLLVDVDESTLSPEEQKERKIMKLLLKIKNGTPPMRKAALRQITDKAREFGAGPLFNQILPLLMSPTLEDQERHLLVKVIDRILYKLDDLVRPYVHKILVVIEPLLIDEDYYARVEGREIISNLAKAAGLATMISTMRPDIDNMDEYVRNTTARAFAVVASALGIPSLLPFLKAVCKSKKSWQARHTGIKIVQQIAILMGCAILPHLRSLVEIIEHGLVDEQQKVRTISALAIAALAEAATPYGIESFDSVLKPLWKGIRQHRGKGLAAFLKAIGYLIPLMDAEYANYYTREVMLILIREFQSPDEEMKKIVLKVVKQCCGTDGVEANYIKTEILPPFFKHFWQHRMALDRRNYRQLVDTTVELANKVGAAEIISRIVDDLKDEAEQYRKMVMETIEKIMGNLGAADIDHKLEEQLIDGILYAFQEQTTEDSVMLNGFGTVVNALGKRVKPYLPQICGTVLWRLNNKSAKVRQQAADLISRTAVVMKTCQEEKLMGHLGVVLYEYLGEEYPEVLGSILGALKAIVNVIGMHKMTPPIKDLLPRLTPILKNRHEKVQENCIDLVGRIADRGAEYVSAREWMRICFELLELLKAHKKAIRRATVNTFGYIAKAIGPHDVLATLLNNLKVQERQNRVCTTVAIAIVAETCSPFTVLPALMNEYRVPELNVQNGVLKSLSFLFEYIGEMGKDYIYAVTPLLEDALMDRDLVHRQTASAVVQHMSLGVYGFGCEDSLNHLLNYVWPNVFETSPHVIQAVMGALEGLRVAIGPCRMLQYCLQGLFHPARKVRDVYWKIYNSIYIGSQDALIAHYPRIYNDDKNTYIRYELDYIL
# UniProt O75151: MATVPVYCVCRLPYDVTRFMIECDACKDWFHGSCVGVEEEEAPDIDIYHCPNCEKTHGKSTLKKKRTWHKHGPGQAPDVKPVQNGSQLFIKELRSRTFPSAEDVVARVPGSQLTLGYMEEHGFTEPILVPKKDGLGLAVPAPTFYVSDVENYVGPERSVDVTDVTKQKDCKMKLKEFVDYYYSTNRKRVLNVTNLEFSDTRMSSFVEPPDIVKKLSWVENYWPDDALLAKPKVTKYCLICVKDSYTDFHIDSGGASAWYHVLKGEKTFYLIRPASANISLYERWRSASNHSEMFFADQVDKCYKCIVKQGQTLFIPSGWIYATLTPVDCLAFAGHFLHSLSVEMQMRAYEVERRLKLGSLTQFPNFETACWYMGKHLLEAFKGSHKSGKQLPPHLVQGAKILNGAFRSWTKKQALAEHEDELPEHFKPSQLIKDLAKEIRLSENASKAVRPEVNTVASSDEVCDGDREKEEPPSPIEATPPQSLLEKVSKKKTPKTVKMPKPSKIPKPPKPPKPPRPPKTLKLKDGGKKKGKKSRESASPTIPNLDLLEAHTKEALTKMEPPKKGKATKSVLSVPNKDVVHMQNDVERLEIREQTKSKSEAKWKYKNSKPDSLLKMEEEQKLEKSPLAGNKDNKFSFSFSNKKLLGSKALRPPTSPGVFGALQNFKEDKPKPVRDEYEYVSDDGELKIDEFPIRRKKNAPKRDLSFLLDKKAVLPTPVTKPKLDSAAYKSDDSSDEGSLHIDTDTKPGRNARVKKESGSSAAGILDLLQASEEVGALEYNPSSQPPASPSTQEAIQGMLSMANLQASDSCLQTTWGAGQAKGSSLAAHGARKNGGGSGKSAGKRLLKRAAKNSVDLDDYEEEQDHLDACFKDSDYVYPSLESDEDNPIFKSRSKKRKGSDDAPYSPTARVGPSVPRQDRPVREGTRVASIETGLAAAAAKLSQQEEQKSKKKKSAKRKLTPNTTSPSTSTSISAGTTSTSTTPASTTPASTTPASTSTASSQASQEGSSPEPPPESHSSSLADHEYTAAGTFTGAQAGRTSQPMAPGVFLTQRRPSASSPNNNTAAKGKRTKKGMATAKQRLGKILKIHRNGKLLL
# UniProt O94903: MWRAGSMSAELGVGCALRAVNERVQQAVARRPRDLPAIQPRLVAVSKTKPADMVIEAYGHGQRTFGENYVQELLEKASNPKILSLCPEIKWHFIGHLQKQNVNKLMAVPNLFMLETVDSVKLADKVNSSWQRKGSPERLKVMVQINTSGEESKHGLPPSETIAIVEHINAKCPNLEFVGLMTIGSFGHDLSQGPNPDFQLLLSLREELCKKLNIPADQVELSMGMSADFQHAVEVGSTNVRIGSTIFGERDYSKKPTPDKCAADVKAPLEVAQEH
# UniProt O94874: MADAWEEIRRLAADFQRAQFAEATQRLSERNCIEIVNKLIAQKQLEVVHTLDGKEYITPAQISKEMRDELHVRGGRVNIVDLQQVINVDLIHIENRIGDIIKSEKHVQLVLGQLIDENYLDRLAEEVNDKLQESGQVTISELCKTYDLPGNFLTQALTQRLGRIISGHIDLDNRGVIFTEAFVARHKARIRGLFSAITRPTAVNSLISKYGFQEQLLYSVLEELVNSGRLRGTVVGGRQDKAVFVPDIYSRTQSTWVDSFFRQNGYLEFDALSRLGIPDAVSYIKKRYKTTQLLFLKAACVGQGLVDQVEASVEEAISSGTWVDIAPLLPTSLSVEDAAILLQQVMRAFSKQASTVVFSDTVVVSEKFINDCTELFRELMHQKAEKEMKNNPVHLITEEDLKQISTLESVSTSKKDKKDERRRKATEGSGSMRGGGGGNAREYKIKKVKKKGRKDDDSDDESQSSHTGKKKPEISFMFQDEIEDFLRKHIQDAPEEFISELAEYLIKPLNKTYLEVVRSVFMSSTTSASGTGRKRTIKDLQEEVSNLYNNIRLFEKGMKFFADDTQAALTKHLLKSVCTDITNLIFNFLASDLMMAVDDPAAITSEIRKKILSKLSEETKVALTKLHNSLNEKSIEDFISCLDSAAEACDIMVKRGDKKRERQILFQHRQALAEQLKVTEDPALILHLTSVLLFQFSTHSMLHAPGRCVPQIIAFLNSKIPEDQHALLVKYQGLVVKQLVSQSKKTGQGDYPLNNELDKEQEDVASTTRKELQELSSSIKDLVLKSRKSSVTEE
# UniProt P00558: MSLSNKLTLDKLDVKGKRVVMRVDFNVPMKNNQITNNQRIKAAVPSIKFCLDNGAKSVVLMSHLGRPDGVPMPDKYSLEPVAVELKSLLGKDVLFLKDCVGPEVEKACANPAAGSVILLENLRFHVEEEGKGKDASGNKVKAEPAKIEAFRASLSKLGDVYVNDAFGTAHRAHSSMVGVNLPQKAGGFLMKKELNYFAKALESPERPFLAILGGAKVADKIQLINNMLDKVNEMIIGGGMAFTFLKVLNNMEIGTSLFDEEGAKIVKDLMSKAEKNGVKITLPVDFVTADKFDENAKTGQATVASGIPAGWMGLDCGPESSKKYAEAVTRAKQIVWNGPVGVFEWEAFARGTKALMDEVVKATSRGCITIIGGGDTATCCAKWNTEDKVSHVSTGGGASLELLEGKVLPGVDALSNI
# UniProt O75398: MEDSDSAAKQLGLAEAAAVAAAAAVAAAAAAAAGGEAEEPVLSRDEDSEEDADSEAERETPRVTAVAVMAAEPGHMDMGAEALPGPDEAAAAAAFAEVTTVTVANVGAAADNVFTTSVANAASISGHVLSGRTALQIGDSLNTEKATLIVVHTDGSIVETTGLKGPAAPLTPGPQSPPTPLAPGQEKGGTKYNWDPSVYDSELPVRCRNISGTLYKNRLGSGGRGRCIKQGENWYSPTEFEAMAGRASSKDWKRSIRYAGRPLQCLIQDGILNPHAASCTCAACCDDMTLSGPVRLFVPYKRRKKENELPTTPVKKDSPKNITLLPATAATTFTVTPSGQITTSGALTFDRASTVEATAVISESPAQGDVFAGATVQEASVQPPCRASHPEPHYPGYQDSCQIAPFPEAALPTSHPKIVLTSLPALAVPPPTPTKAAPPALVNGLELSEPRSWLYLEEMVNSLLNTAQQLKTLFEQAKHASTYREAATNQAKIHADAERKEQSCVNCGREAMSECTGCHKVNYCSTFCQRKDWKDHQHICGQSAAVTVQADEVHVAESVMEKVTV
# UniProt O96005: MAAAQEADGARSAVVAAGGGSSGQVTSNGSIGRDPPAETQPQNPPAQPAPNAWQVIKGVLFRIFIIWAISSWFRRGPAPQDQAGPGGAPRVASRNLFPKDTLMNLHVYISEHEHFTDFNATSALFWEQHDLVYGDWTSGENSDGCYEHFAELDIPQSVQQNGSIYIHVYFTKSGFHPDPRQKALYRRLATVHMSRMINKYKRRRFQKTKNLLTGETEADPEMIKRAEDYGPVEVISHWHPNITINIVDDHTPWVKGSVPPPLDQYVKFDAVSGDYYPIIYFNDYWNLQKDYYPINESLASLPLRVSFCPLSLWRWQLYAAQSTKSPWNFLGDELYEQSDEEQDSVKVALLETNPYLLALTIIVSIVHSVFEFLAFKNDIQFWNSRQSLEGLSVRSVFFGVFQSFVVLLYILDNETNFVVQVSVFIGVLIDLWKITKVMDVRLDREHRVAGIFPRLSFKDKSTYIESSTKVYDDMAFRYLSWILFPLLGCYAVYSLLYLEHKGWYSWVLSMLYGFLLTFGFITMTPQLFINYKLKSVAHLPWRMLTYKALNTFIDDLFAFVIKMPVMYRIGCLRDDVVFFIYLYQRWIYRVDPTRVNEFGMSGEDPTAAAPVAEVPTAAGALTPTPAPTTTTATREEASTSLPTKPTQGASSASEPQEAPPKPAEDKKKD
# UniProt P11177, whole entry, looked up: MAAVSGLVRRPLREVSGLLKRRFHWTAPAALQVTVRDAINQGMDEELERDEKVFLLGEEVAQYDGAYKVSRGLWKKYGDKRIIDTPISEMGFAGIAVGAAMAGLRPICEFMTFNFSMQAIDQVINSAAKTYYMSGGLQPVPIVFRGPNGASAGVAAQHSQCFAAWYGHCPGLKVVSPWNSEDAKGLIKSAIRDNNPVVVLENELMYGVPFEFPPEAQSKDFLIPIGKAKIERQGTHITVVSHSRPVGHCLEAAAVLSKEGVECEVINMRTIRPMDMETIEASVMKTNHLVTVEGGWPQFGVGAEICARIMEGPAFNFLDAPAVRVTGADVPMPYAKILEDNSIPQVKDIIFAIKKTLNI
# ± gives the standard deviation of the averaged measurements. Some of the results follow.
# Compound: Nc1nc2c(ncn2[C@@H]2O[C@H](COP(=O)(O)OP(=O)(O)OP(=O)(O)O)[C@@H](O)[C@H]2O)c(=O)[nH]1 [guanosine triphosphate]
# Assay: NP40-soluble protein abundance relative to vehicle (solubility fold change) (ratio); higher = more soluble protein in presence of GTP
# Summary of the method: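 In three independent experiments, Jurkat crude lysate made by Dounce homogenisation was treated for 10 min at room temperature and then 3 min at 37 °C with eight concentrations ranging from 0.1 to 10 mM. It was then solubilised with 0.8% NP40 plus benzonase for 60 min at 4 °C and ultracentrifuged. The supernatant was TMT-labelled for LC-MS/MS, and each value is the fold change against the detergent-processed vehicle for the same replicate, using vsn-normalised intensities.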
Target,NP40-soluble protein abundance (concentration: 0.1mM),NP40-soluble protein abundance (concentration: 0.5mM),NP40-soluble protein abundance (concentration: 1mM),NP40-soluble protein abundance (concentration: 2mM),NP40-soluble protein abundance (concentration: 4mM),NP40-soluble protein abundance (concentration: 6mM),NP40-soluble protein abundance (concentration: 8mM),NP40-soluble protein abundance (concentration: 10mM)
MED26 (UniProt O95402),1.05 ± 0.024,0.93 ± 0.084,1.08 ± 0.26,1 ± 0.05,1.19 ± 0.15,1.16 ± 0.009,1.28 ± 0.028,1.29 ± 0.098
FARS2 (UniProt O95363),0.952 ± 0.067,0.937 ± 0.11,0.931 ± 0.1,0.918 ± 0.066,0.951 ± 0.059,0.905 ± 0.049,0.913 ± 0.12,0.884 ± 0.06
UniProt O75569 and related entries,0.981 ± 0.077,1.03 ± 0.09,0.964 ± 0.046,1.01 ± 0.055,1.05 ± 0.031,1.13 ± 0.039,1.14 ± 0.042,1.22 ± 0.033
ZFAND5 (UniProt O76080),0.941 ± 0.063,0.8558 ± 0.0072,0.979 ± 0.051,0.983 ± 0.049,0.979 ± 0.086,0.999 ± 0.079,1.11 ± 0.056,1.064 ± 0.0088
UniProt O95758-2|O95758-6|O95758 and related entries,1.02 ± 0.074,0.974 ± 0.052,1.02 ± 0.064,1.05 ± 0.11,0.994 ± 0.088,0.972 ± 0.05,0.959 ± 0.058,0.951 ± 0.038
SF3B1 (UniProt O75533),1.05 ± 0.038,1.11 ± 0.065,1.11 ± 0.087,1.15 ± 0.11,1.17 ± 0.12,1.18 ± 0.14,1.19 ± 0.15,1.18 ± 0.12
UniProt O75054 and related entries,1.11 ± 0.081,1.09 ± 0.07,1.07 ± 0.083,1.02 ± 0.1,1.02 ± 0.083,1.02 ± 0.062,1.03 ± 0.072,1.02 ± 0.075
AGFG2 (UniProt O95081),1.05 ± 0.06,1.09 ± 0.092,1.05 ± 0.082,1.06 ± 0.097,0.984 ± 0.12,0.976 ± 0.067,1.06 ± 0.075,0.954 ± 0.059
PHF2 (UniProt O75151),0.968 ± 0.1,1.03 ± 0.076,1.06 ± 0.095,1.08 ± 0.17,1.07 ± 0.11,1.16 ± 0.16,1.18 ± 0.1,1.32 ± 0.17
UniProt O94903,0.972 ± 0.066,0.912 ± 0.061,0.949 ± 0.073,0.899 ± 0.096,0.892 ± 0.086,0.874 ± 0.081,0.902 ± 0.069,0.897 ± 0.078
UniProt O75486 and related entries,1.06 ± 0.097,1.03 ± 0.15,1.08 ± 0.077,1.14 ± 0.038,1.19 ± 0.12,1.14 ± 0.15,1.3 ± 0.21,1.24 ± 0.26
UniProt O95251 and related entries,1.02 ± 0.073,1.02 ± 0.092,1.13 ± 0.078,1.01 ± 0.088,1.01 ± 0.11,1.08 ± 0.12,1.06 ± 0.18,1.09 ± 0.18
UniProt O94874,0.9794 ± 0.0063,0.9735 ± 0.007,0.939 ± 0.018,0.9783 ± 0.0089,0.995 ± 0.023,1.019 ± 0.0033,1 ± 0.016,1.01 ± 0.031
ACSL3 (UniProt O95573),1.05 ± 0.016,1.05 ± 0.049,0.942 ± 0.013,0.949 ± 0.037,0.924 ± 0.029,0.893 ± 0.035,0.914 ± 0.018,0.853 ± 0.021
UniProt P00558 and related entries,0.907 ± 0.059,0.882 ± 0.059,0.859 ± 0.049,0.829 ± 0.13,0.787 ± 0.069,0.836 ± 0.083,0.834 ± 0.068,0.812 ± 0.076
UniProt O75554 and related entries,1.01 ± 0.045,1.07 ± 0.1,1.08 ± 0.083,1.05 ± 0.12,1.04 ± 0.059,1.09 ± 0.12,1.12 ± 0.072,1.06 ± 0.034

Target,NP40-soluble protein abundance (concentration: 0.1mM),NP40-soluble protein abundance (concentration: 0.5mM),NP40-soluble protein abundance (concentration: 1mM),NP40-soluble protein abundance (concentration: 2mM),NP40-soluble protein abundance (concentration: 4mM),NP40-soluble protein abundance (concentration: 6mM),NP40-soluble protein abundance (concentration: 8mM),NP40-soluble protein abundance (concentration: 10mM)
UniProt P01112,1.08 ± 0.15,1.06 ± 0.16,1.06 ± 0.037,1.01 ± 0.07,0.982 ± 0.042,1.01 ± 0.085,1.02 ± 0.023,0.971 ± 0.045
UniProt O75398 and related entries,1.02 ± 0.089,1.03 ± 0.11,1 ± 0.095,1.04 ± 0.16,0.967 ± 0.12,1.05 ± 0.16,1.02 ± 0.051,0.968 ± 0.17
UniProt O75376 and related entries,0.993 ± 0.039,1.02 ± 0.05,1.05 ± 0.045,1.08 ± 0.079,1.1 ± 0.11,1.13 ± 0.1,1.17 ± 0.17,1.18 ± 0.17
ATG7 (UniProt O95352),1 ± 0.056,1.02 ± 0.059,0.982 ± 0.053,0.969 ± 0.062,0.97 ± 0.091,0.963 ± 0.076,0.948 ± 0.037,0.951 ± 0.031
TOMM40 (UniProt O96008),1.01 ± 0.045,1.04 ± 0.031,0.953 ± 0.041,0.967 ± 0.018,0.946 ± 0.043,0.936 ± 0.037,0.939 ± 0.077,0.905 ± 0.061
TAF5L (UniProt O75529),1.22 ± 0.087,1.26 ± 0.17,1.19 ± 0.2,1.21 ± 0.12,1.28 ± 0.093,1.22 ± 0.16,1.22 ± 0.06,1.25 ± 0.11
KIF20A (UniProt O95235),1.15 ± 0.063,1.18 ± 0.058,1.167 ± 0.011,1.22 ± 0.038,1.27 ± 0.021,1.26 ± 0.038,1.35 ± 0.091,1.39 ± 0.074
UniProt P05026 and related entries,0.967 ± 0.15,0.963 ± 0.05,1.03 ± 0.11,1.05 ± 0.089,1.02 ± 0.11,0.985 ± 0.082,1.01 ± 0.084,1.03 ± 0.061
UniProt O60921 and related entries,1.2 ± 0.32,1.12 ± 0.27,1.12 ± 0.19,1.11 ± 0.18,1.03 ± 0.24,1.03 ± 0.14,1.05 ± 0.22,1.02 ± 0.22
LYPLA2 (UniProt O95372),0.9143 ± 0.0062,0.859 ± 0.029,0.922 ± 0.037,0.928 ± 0.034,0.917 ± 0.034,0.869 ± 0.039,0.831 ± 0.12,0.887 ± 0.062
NDUFS6 (UniProt O75380),0.927 ± 0.015,0.981 ± 0.023,1.05 ± 0.026,1.04 ± 0.059,0.999 ± 0.073,1.05 ± 0.058,1.06 ± 0.12,1.1 ± 0.16
UniProt P00491,1 ± 0.11,0.966 ± 0.049,0.929 ± 0.084,0.912 ± 0.025,0.906 ± 0.022,0.887 ± 0.028,0.862 ± 0.063,0.847 ± 0.041
UniProt O96005 and related entries,1.05 ± 0.12,0.982 ± 0.062,1.01 ± 0.078,0.969 ± 0.044,0.949 ± 0.036,0.951 ± 0.029,0.947 ± 0.029,0.899 ± 0.017
N4BP1 (UniProt O75113),1.01 ± 0.034,1.01 ± 0.032,1.01 ± 0.073,0.982 ± 0.13,0.959 ± 0.11,1.02 ± 0.18,0.998 ± 0.091,0.953 ± 0.065
P0619_C027|P11177 and related entries (UniProt P11177),1.09 ± 0.053,1.11 ± 0.13,1.14 ± 0.18,1.23 ± 0.21,1.29 ± 0.26,1.27 ± 0.27,1.27 ± 0.27,1.19 ± 0.26
POLB (UniProt P06746),0.963 ± 0.065,1.01 ± 0.057,1.04 ± 0.049,1.05 ± 0.065,1.09 ± 0.053,1.14 ± 0.042,1.17 ± 0.092,1.19 ± 0.051

# Part of the list above, with tabs:
Target	NP40-soluble protein abundance (concentration: 0.1mM)	NP40-soluble protein abundance (concentration: 0.5mM)	NP40-soluble protein abundance (concentration: 1mM)	NP40-soluble protein abundance (concentration: 2mM)	NP40-soluble protein abundance (concentration: 4mM)	NP40-soluble protein abundance (concentration: 6mM)	NP40-soluble protein abundance (concentration: 8mM)	NP40-soluble protein abundance (concentration: 10mM)
UniProt P05026 and related entries	0.967 ± 0.15	0.963 ± 0.05	1.03 ± 0.11	1.05 ± 0.089	1.02 ± 0.11	0.985 ± 0.082	1.01 ± 0.084	1.03 ± 0.061
UniProt O60921 and related entries	1.2 ± 0.32	1.12 ± 0.27	1.12 ± 0.19	1.11 ± 0.18	1.03 ± 0.24	1.03 ± 0.14	1.05 ± 0.22	1.02 ± 0.22
LYPLA2 (UniProt O95372)	0.9143 ± 0.0062	0.859 ± 0.029	0.922 ± 0.037	0.928 ± 0.034	0.917 ± 0.034	0.869 ± 0.039	0.831 ± 0.12	0.887 ± 0.062
NDUFS6 (UniProt O75380)	0.927 ± 0.015	0.981 ± 0.023	1.05 ± 0.026	1.04 ± 0.059	0.999 ± 0.073	1.05 ± 0.058	1.06 ± 0.12	1.1 ± 0.16
UniProt P00491	1 ± 0.11	0.966 ± 0.049	0.929 ± 0.084	0.912 ± 0.025	0.906 ± 0.022	0.887 ± 0.028	0.862 ± 0.063	0.847 ± 0.041
UniProt O96005 and related entries	1.05 ± 0.12	0.982 ± 0.062	1.01 ± 0.078	0.969 ± 0.044	0.949 ± 0.036	0.951 ± 0.029	0.947 ± 0.029	0.899 ± 0.017
N4BP1 (UniProt O75113)	1.01 ± 0.034	1.01 ± 0.032	1.01 ± 0.073	0.982 ± 0.13	0.959 ± 0.11	1.02 ± 0.18	0.998 ± 0.091	0.953 ± 0.065
